Some entries share one result that the patent states for a list of compounds.
System: human cancer cell lines
Experiment: CyQUANT cell viability assay, 48-hour exposure, panel averages
Description: After drug treatments, fluorescence readings from 96-well plates were obtained using the CyQUANT dye and compared to standard curves for each cell line to determine cell viability. […] Trypan blue exclusion was used to estimate cell numbers in a few pilot experiments and was thereafter applied to confirm cell death.
A series of experiments was conducted to assess the relative efficacy of 4SP65, 1LP65, and amifostine as single agents in the same human cancer cell lines. First, the effectiveness of 4SP65 was tested against 15 cancer cell lines derived from seven tissues. […]
Trans. […] Using cell numbers based on fluorescence measurements and standard curves [time zero, (Tz), control growth, (C), and test growth in the presence of drug at five or more concentration levels (Ti)], the percentage growth was calculated at each drug concentration level. The percentage of growth inhibition was calculated as follows:
The LC50/99 was calculated using Equation 2=−50 and Eq. 2=−99, respectively. […] For NHMECs, the relationships between drug exposure levels and fluorescence units were used to define dose-response metrics. The selectivity index (SI) values for individual drug treatments were calculated as IC50 levels in NHMECs divided by the IC50 values in cancer cell lines.

Row | Compound | relative growth inhibition achieved before dose-response curves flatten [%]
1 | COCCOCCOCCOCCOCCOCCSSCCNCCCN [1LP65, m-PEG6-S-S-WR1065] | > 97
2 | 4-star PEG-S-S-WR1065 [4SP65] | > 97

— patent US20250144050A1, “AMINOTHIOL-CONJUGATES, COMPOSITIONS, AND METHODS OF USE THEREOF” (THE BURLINGTON HC RESEARCH GROUP, INC., priority 2021, published 2025)
